PubChem BioAssay AID485314 (National Center for Advancing Translational Sciences (NCATS), 2010)
About 4,500 (1.3%) of roughly 340,000 compounds were called active. The shares of active, inactive and inconclusive entries below differ from those in the screen. Calls follow the shape of the dose curve; as a rule, active = well fitted inhibition curve with a large enough effect; inconclusive = small, poorly fitted or top-dose-only effect, or another doubt; inactive = no such curve, though single readings can be large or run the other way. A potency beside an inconclusive call is a rough fit, not a confirmed value.
% is scaled to controls: 0 for no effect and ±100 for the full control effect; potency is read from the fitted curve at half-maximal effect.

Each compound was assayed against DNA polymerase beta (Homo sapiens) (UniProt P06746) (assay: qHTS Assay for Inhibitors of DNA Polymerase Beta). Details: Pol beta primer extension/strand displacement, fluorescence kinetic; activity change, negative = inhibition: at 114 µM (top of the series).
In short: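 Curves were derived by four-parameter Hill fits of normalized qHTS data. The kinetic fluorescent primer-extension read was taken at 0 and 10 min after 50 nM substrate, following a 15 min room-temperature preincubation of 10 nM enzyme with compounds.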
For `O=[N+]([O-])c1ccc(/C=N/NC(=S)Nc2ccccc2C(F)(F)F)o1`, the Potency was inconclusive: 39.8 µM [inhibitor, partial curve, poor fit]. For `CCOC(=O)C1CCN(C(=O)c2ccc(Cl)c(NC3=NC4CS(=O)(=O)CC4S3)c2)CC1` (centres undefined), the Potency was inconclusive: 39.8 µM [inhibitor, single point]. For `O=C(COc1ccccc1Cl)OCc1cc(=O)n2nc(-c3cccs3)sc2n1`, the Potency was inconclusive: 70.8 µM [inhibitor, single point]. In the case of `NC(=O)COC(=O)c1cc(S(=O)(=O)N2CCOCC2)ccc1N1CCCCC1`, the Potency is reported as inconclusive: 89.1 µM [inhibitor, single point]. For `CCOc1cccc(NC(=O)/C(C#N)=C\c2cn(CC(=O)O)c3ccccc23)c1`, the Potency was active: 50.1 µM. `CN1C(=O)C2(OCCCO2)c2cc(Cl)ccc21` was tested, and the Potency was inconclusive: 70.8 µM [inhibitor, single point]. With `COc1ccc(N=C2S/C(=C\c3ccc(OCC(=O)O)cc3)C(=O)N2CCc2c[nH]c3ccccc23)cc1` the Potency was active: 3.98 µM. For `O=S(=O)(O)c1ccc(N=Nc2ccccc2)cc1`, the Potency was inconclusive: 89.1 µM [inhibitor, single point]. With `Cc1noc(NS(=O)(=O)c2ccc(NC(=O)/C=C/c3ccc(Br)cc3)cc2)c1C` the activity change, negative = inhibition was inconclusive: -94.3% [inhibitor]. For `CCOC(=O)CCNC(=O)N1CCCC(N(C)CCc2ccc(OC)c(OC)c2)C1` (centres undefined), the “activity change, negative = inhibition” value was inactive: 36.7%. `C=CCNc1nc(N)c([N+](=O)[O-])c(Nc2ccccc2OC)n1` was tested, and the “activity change, negative = inhibition” value was inactive: 11.4%. In the case of `O=C(COc1ccccc1-c1ccccc1)NCc1ccco1`, the “activity change, negative = inhibition” value is reported as inactive: 6.51%. With `O=C(Nc1ccc(S(=O)(=O)Nc2nccs2)cc1)c1cc(-c2ccccn2)nc2ccccc12` the Potency was inconclusive: 79.4 µM [inhibitor, single point]. With `Cc1ccc(-c2csc3nnc(SCC(=O)Nc4cccc(C)n4)n23)cc1` the Potency was inconclusive: 89.1 µM [inhibitor, single point]. `O=C(O)C1Cc2ccccc2CN1C(=O)CCl` (centres undefined) was tested, and the “activity change, negative = inhibition” value was inactive: -9.4%. `COc1ccc(C(=O)OCc2cc(=O)n3nc(-c4cccs4)sc3n2)cc1` was tested, and the Potency was inconclusive: 20 µM [inhibitor, full curve]. In the case of `O=c1cc(O)c2c(=O)n(-c3ccccc3)c3ccccc3c2o1`, the Potency is reported as active: 22.4 µM. `CN(C)P(=NC(=O)COc1ccc(Cl)cc1Cl)(N(C)C)N(C)C` was tested, and the Potency was inconclusive: 0.158 µM [inhibitor, full curve, poor fit]. In the case of `CC(C)NC(=O)NC(=O)COC(=O)c1cccc(OC(F)F)c1`, the “activity change, negative = inhibition” value is reported as inactive: 20.9%. With `COc1ccc(N2CCN(c3oc(-c4ccc(OC)c(OC)c4)nc3C#N)CC2)cc1` the Potency was inconclusive: 89.1 µM [inhibitor, single point]. In the case of `CCCCCCCc1c(C#N)c(N)[nH]c(=S)c1C#N`, the “activity change, negative = inhibition” value is reported as inactive: -26%. For `CCC(C)(C)C1CCc2c(sc(NC(=O)c3ccoc3C)c2C(N)=O)C1` (centres undefined), the Potency was inconclusive: 25.1 µM [inhibitor, partial curve, poor fit]. In the case of `COc1cc(-c2noc(-c3ccc(N4CCN(C)CC4)c([N+](=O)[O-])c3)n2)cc(OC)c1OC`, the Potency is reported as inconclusive: 39.8 µM [inhibitor, partial curve]. For `COc1ccc(/C=N/NC(=O)CCc2nc3ccccc3[nH]2)cc1`, the Potency was inconclusive: 79.4 µM [inhibitor, single point]. With `Cn1c(SCC(=O)N/N=C/c2ccc([N+](=O)[O-])s2)nnc1-c1ccc(Cl)cc1` the “activity change, negative = inhibition” value was inactive: 7.66%. `O=C(NCCO)c1ccc2[nH]c3c(c2c1)CCCC3` was tested, and the “activity change, negative = inhibition” value was inactive: 7.84%. `O=C(Nc1ccncc1)c1ccc(-c2ccccc2)cc1` was tested, and the Potency was inconclusive: 25.1 µM [inhibitor, full curve]. In the case of `O=C(N/N=C/c1ccco1)C1CC1(c1ccccc1)c1ccccc1` (centres undefined), the Potency is reported as inconclusive: 17.8 µM [inhibitor, single point]. With `O=S(=O)(Nc1ccc(Cl)cn1)c1cnc(Cl)c(Br)c1` the activity change, negative = inhibition was inconclusive: -38.3% [inhibitor]. In the case of `O=C(CSc1ccc(-c2nc3ccccc3[nH]2)cn1)Nc1ccc(S(=O)(=O)NC2CC2)cc1`, the Potency is reported as active: 17.8 µM. In the case of `Oc1ccc(/C=N/Nc2ccnc3cc(Cl)ccc23)cc1O`, the activity change, negative = inhibition is reported as inconclusive: -94.4% [inhibitor]. `CC(=O)O/N=C/c1c(C)c(C=O)n2ccccc12` was tested, and the Potency was inconclusive: 39.8 µM [inhibitor, single point]. `COc1ccc(Cc2nc(-c3ccc(Br)o3)no2)cc1OC` was tested, and the Potency was inconclusive: 100 µM [inhibitor, single point]. In the case of `Cc1ccc(C)c(NC(=O)CSc2nc3nc(-c4cccs4)cc(C(F)(F)F)c3c(=O)[nH]2)c1`, the activity change, negative = inhibition is reported as inconclusive: -76.5% [inhibitor]. In the case of `COc1ccc(C2C(C(=O)c3sc(C)nc3C)=C(O)C(=O)N2CCCn2ccnc2)cc1OC` (centres undefined), the Potency is reported as inconclusive: 25.1 µM [inhibitor, partial curve, poor fit]. In the case of `Cc1ccc(N2CCN(C(=O)c3c(C)oc4ncn(C)c(=O)c34)CC2)c(C)c1`, the Potency is reported as inconclusive: 4.47 µM [inhibitor, single point]. `O=C(/C=C/c1ccc2c(c1)OCO2)Nc1nc(-c2ccc(F)cc2F)cs1` was tested, and the Potency was active: 22.4 µM. `Cc1ccc(NC(=O)CSc2nc3c(oc4ccccc43)c(=O)n2Cc2ccco2)cc1F` was tested, and the “activity change, negative = inhibition” value was inactive: 1.95%. `O=C(OCC(=O)c1cccs1)c1cccc(C(=O)OCC(=O)c2cccs2)n1` was tested, and the Potency was inconclusive: 39.8 µM [inhibitor, single point]. In the case of `Cn1c(=O)c2cc(S(=O)(=O)NC(Cc3ccccc3)C(=O)Nc3ccc(F)cc3)ccc2n(C)c1=O` (centres undefined), the “activity change, negative = inhibition” value is reported as inactive: 13.5%. `Cc1ccccc1NC(=O)c1cc(C(=O)c2cc(Cl)ccc2O)cn(-c2ccccc2C)c1=O` was tested, and the Potency was inconclusive: 89.1 µM [inhibitor, single point]. For `CCOC(=O)Cc1[nH]nc2c1C(c1cc(OC)ccc1OC)C(C#N)=C(N)O2` (centres undefined), the Potency was inconclusive: 17.8 µM [inhibitor, full curve]. For `COc1ccc(NC(=O)Oc2ccccc2)cc1Cl`, the Potency was inconclusive: 4.47 µM [inhibitor, full curve, poor fit]. In the case of `Cc1cc(C)n2nc(SCc3nnc(-c4ccccc4Br)o3)nc2n1`, the Potency is reported as inconclusive: 31.6 µM [inhibitor, full curve, poor fit].
